These are yes or no findings as the source states them, for the method shown. In cells and extracts the contact can be indirect. A yes stands for co-enrichment or nearness to the bait. Other partners may have been found.
Columns and labels:
[1] = molecular target: PfGRP170-HA-BirA (P. falciparum); assay: proximity labelling
[2] = molecular target: PfGRP170-GFP-DDD (P. falciparum); assay: affinity purification with mass spectrometry

B1: SERA6 (protein, UniProt Q9TY96 25-1031)
chain: NKVTVISHNNGHNDNLDVNKNGVISQENVFDTSESLNLPSNKKVGSDDLNTTTISFTVPDNLENEVKVVSSSESGKGATVSHTKVTSEGLSDTQPNVTQSVSSSTHTPGSLDSTMSTEQHSSVSQSSLPTESSSETLNKATVPEIPIQINSGLLKNYNGVKVTGSCGSYFRVYLVPHILIYALTKYSVIQLESLFNDNARIDVEHKGELQNKCSEGYHFKLVVYITHNVLNLKWKTYKPNEESKSEDSDVRKYRIPKLERPFTSIQVYTANSKAGVIETKNYNIRTDIPDTCDAIATDCFLNGNVNIEKCFQCTLLVQKKDKSHECFKYVSSEMKKKMNEIKVKAQDDFNPNEYKLIESIDNILSKIYKKANKPFEISKDLINLEDLDYQFKNELLEYCKLLKKVDTSGTLEEYELGNAEDIYNNLTRLLKSHSDENIVTLQGKLRNTAICIKNVDEWILNKRGLTLPSESPSESSSKSDSYLNTFNDKDKNEDKDDMSKNSKEEFKNDDKENSDDQNNNDSNKKDDENNINNGDTNYVYDFDDDDYDNNSYEKDMYESPIKENKNGVIDLEKYGNQIKLKSPYFKNSKYCNYEYCNRWRDKTSCISQIEVEEQGNCGLCWIFASKLHFETIRCMRGYGHFRSSALYVANCSKRKPIDRCEEGSNPLEFLRILDEKKFLPLESNYPYSYTSAGNSCPKLPNSWTNLWGDTKLLFNKKVHRYIGNKGFISHETSYFKNNMDLFIDMVKREVQNKGSVIIYIKTQDVIGYDFNGKGVHSMCGDRTPDHAANIIGYGNYINKKGEKRSYWLIRNSWSYYWGDEGNFRVDMLGPKNCLYNFIHTVVFFKLDLGTIHVPKKKSWKKNVYFLRHNPDFMYSLYYNNYEPETSQDFESENDYDNAFVHGQSNESDETNKEGKNVHNSVEKKIQILHILKHIKDSQIKRGLVKYDNINETKDEHTCSRVNSQDAEKYEECKKFCLTKWNECKDHYSPGYCLTDLYKGEDCNFCYV
binding [1]: binds | binding [2]: binds

— paper doi:10.1101/406181
